The values that follow come from the odorant receptor screen of Mainland et al. (2015).

“And” between values parts separate entries of the source, which are not always exact repeats. Identical values can stand only once. This is one part of the list. Each value is one well over the wells without odorant, computed here; the data are noisy.

One experiment relates to OR6K3 clone 1485. Nature of the experiment: odorant receptor activation (CRE luciferase / Renilla) (fold of no-odor wells); higher = more activation. The following applies: 100 µM.
`CC(=O)OC(C)(C)C1CC=C(C)CC1` (configuration not stated) [terpinyl acetate] came in with an odorant receptor activation of 0.993.

As to `CC=Cc1ccc(O)c(OC)c1` [isoeugenol], the odorant receptor activation was 1.26 and 1.81. The same measure, in the same setting: the same measure for `CCCC(=O)O` [butyric acid]: 0.727. On to `C=CCSCC=C` [diallyl sulfide], for which the odorant receptor activation worked out at 1.3. On the same count and under the same terms, in the case of `CCCCCCCCCC=O` [decyl aldehyde] it was 1.17.

For the next experiment, the system named is OR6K6 clone 1348. The experiment is described as above. The following applies: 100 µM.
Turning to `CC(C)(C)c1ccc(CCC=O)cc1` [bourgeonal], the odorant receptor activation was 0.693. On to `CC(=O)c1ccccc1` [acetophenone], for which the odorant receptor activation was 0.918 and 0.579. Still for that read-out and setting: the same measure for `CCCCCCCCC=O` [nonyl aldehyde]: 0.909; for `CCCCCC(=O)O` [caproic acid]: 0.958.

Take `CC1=CCC(C(C)(C)O)CC1` (configuration not stated) [terpineol]: the odorant receptor activation stood at 0.708. On the same count and under the same terms, the same measure for `CCCCCCCCOC(C)=O` [octyl acetate]: 1.24; for `COC(=O)c1ccccc1` [methyl benzoate]: 0.797 and 0.806. The molecule `O=C1CCCCCCCCCCCCCCO1` [pentadecalactone] registered an odorant receptor activation of 0.749. Turning to `COc1cc(C)ccc1O` [2-methoxy-4-methylphenol], the odorant receptor activation was found to be 0.874.

`CC12C=CCC1C1CCC3CC(=O)CCC3(C)C1CC2` (configuration not stated) [androstenone] had an odorant receptor activation of 1.24. On the same count and under the same terms, in the case of `CCCCCCCOC(C)=O` [heptyl acetate] it was 0.648 and 0.564; in that of `CC1=NC(C)SC1C` (configuration not stated), 0.854 and 0.827. As to `CC(C)C=O` [isobutyraldehyde], the odorant receptor activation is 1.18 and 0.687.

Molecule `C=CC(C)(O)CCC=C(C)C` (configuration not stated) [linalool] gave an odorant receptor activation of 0.841. The molecule `O=CCc1ccccc1` [phenyl acetaldehyde] came in with an odorant receptor activation of 1.07. On to `CCCCCCCCCCC=O` [undecanal], for which the odorant receptor activation was determined as 0.744.

As to `CC1COCc2cc3c(cc21)C(C)(C)C(C)C3(C)C` (configuration not stated) [galaxolide], the odorant receptor activation was 1.65 and 2.44.
